Experimental findings from article PMC5996148 are described below.

The chains behind the UniProt entries cited, without tags or fusion partners. Where a name states a change or a piece, a line headed by the entry shows the natural chain unless it says otherwise.
UniProt Q6P597: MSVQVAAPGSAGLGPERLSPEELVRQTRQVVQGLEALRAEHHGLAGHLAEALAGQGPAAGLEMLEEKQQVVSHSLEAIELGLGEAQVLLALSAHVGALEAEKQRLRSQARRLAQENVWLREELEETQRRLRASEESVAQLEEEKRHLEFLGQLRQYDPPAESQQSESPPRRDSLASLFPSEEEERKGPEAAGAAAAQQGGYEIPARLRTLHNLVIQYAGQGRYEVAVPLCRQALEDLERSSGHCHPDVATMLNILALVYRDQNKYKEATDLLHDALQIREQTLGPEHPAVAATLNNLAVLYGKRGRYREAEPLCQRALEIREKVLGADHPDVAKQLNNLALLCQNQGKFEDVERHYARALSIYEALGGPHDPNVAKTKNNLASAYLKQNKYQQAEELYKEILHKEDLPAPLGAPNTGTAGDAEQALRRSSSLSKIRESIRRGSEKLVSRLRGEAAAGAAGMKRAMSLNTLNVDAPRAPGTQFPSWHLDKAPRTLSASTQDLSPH
UniProt Q9NSK0: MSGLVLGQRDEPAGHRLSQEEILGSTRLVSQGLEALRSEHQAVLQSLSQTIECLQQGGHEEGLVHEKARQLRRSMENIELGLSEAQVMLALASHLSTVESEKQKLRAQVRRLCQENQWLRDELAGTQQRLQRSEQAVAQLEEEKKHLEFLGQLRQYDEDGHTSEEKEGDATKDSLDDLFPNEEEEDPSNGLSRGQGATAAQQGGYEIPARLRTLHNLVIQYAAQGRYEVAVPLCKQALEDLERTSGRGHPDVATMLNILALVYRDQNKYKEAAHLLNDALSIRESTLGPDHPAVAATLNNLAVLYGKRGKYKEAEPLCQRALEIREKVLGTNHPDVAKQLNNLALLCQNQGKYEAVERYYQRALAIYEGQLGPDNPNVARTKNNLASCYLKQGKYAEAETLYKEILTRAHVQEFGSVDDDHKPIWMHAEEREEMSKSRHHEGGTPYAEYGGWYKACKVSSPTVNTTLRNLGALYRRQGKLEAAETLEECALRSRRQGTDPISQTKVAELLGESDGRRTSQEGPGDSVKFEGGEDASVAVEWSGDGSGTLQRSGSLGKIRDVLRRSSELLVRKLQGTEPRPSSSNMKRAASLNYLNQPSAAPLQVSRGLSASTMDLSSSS
UniProt Q8TBB5: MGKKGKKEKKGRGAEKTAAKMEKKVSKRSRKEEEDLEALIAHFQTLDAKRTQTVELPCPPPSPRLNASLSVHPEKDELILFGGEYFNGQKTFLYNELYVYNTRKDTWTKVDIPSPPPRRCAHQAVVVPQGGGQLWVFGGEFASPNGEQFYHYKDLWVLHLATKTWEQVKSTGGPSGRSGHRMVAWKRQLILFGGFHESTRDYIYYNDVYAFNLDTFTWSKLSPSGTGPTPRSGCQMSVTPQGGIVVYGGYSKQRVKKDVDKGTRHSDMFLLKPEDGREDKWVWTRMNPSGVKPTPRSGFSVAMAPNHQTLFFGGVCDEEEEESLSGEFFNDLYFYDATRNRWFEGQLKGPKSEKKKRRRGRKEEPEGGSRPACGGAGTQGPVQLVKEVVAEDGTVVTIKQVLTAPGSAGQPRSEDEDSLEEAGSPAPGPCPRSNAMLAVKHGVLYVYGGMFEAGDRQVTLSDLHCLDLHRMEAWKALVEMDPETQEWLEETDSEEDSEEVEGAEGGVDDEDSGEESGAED
UniProt Q13601: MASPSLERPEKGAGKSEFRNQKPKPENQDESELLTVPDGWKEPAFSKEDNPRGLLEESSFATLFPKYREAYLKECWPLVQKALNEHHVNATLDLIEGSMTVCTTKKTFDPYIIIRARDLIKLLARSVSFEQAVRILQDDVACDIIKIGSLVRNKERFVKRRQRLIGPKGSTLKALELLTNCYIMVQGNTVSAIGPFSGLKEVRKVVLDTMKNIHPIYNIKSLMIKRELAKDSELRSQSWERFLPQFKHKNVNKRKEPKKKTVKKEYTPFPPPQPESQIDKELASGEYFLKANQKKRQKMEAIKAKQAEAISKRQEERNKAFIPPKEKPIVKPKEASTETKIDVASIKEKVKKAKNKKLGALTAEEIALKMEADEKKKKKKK

Among the targets are KLC3 (UniProt Q6P597); KLC4 (UniProt Q9NSK0); KLHDC4 (UniProt Q8TBB5); KRR1 (UniProt Q13601).
Common to all, as to experiment: protein microarray (ProtoArray v5.0), streptavidin-Alexa Fluor 647
What all share (details): 3'-biotin; 20 mM Tris (pH 7.5), 5 mM MgCl2, 100 mM KCl, 0.1% Tween-20, A/T-rich and random oligonucleotide blockers; temperature not stated; high values mean tight binding

The test system of the next assay is KLHL20 (human).
The next assay concerns KLHL32 (human).
A further assay relates to KLK1 (human).
In a further assay the test system is KLK7 (human).
In another assay the test system is KLK9 (human).
The next assay relates to KRAS (human).

The list shows a part of the results. For some of these results: Construct or isoform of the protein are uncertain.

Turning to “GGTGACAGGGGTATGGGGAGGGG [G4-2 biotinylated (Ct1)]”, the binding signal was -0.376 z-score with KLC3; -0.396 z-score in the assay with KLC4; 3.17 z-score with KLHDC4; -0.386 z-score in the assay on KLHL20 (human); -0.403 z-score in the assay on KLHL32 (human); -0.374 z-score with KLK1 (human). Further, the binding signal is -0.366 z-score with KLK7 (human), -0.385 z-score in the assay on KLK9 (human), -0.383 z-score in the assay on KRAS (human) and 6.5 z-score in the assay with KRR1.
